Results from PubChem BioAssay AID2685 (National Center for Advancing Translational Sciences (NCATS), 2010).
This is one part of the list. The main result of the screen is listed elsewhere. These columns were measured beside it and carry no call. Most of these compounds were active or inconclusive in the main read-out, so they are no random draw. Words in brackets tell the shape of the fitted curve; partial curves, single points and poor fits give uncertain potencies.

Test: qHTS Assay for Lipid Storage Modulators in Drosophila S3 Cells;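 on cell number change: cells counted by Cell Tracker Red CMTPX staining in the red channel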
Conditions: BODIPY lipid droplet fluorescence, 18-24 h; for cell number change: measured here: cell count max response, cells fed with added oleic acid
In short: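 Laser-scanning cytometry quantifies lipid droplet accumulation (500–530 nm total intensity; droplet/cell object ratio) in oleic acid-fed (400 uM added) Drosophila S3 cells treated with a concentration series. 20 uM Triacsin C defined 100% inhibition.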

[1] = measured here: cell number channel AC50, cells fed with added oleic acid
[2] = measured here: lipid fluorescence (Fed channel) AC50, cells fed with added oleic acid

Work on `CCN1CCN(CCCNC(=O)Cn2nc(C)n3nc(-c4ccccc4)cc3c2=O)CC1` yielded a cell number change of -2.69%.

With `CCOP(=O)(OCC)C(NCc1ccccc1)c1ccc(Br)cc1` (centres undefined) the cell number change was -42.3% and the AC50 [1] was 32.6 µM [falling, single point].

Work on `O=C(NC(=S)NCC1CCCO1)c1ccccc1F` (centres undefined) yielded a cell number change of -37.6%.

For `COc1ccc(NC(=O)CN2CCc3ccccc3C2)cc1S(=O)(=O)N1CCOCC1`, the cell number change was -6.99% and the AC50 [2] was 2.59 µM [falling, partial curve].

With `Cc1cc(S(=O)(=O)NCc2ccccc2)ccc1OCC(=O)Nc1cccc([N+](=O)[O-])c1` the cell number change was -52.2%, the AC50 [1] was 29.1 µM [falling, single point] and the AC50 [2] was 23.1 µM [falling, single point].

For `COC(=O)c1cc(C(=O)NCCCN2CCOCC2)cc([N+](=O)[O-])c1`, the AC50 [1] was 4.61 µM [rising, single point].

For `CC(=O)[C@@H]1[C@@H]2C(=O)N(Cc3ccccc3)C(=O)[C@@H]2C2c3ccccc3C=CN21` (some centres undefined), the cell number change was 32.7%, the AC50 [1] was 2.91 µM [rising, full curve] and the AC50 [2] was 6.51 µM [rising, single point].

For `COc1ccc2oc(C(=O)OCC(=O)Nc3cc(S(=O)(=O)N4CCOCC4)ccc3C)c(C)c2c1`, the cell number change was -33.9%, the AC50 [1] was 7.31 µM [falling, partial curve, poor fit] and the AC50 [2] was 16.4 µM [falling, partial curve, poor fit].

With `CCOC(=O)C1=C(c2ccccc2)OC(N)=C(C#N)C1C(C)C` (centres undefined) the cell number change was -17.8% and the AC50 [2] was 0.092 µM [rising, full curve, poor fit].

For `CCOc1ccc(C(CCc2ccccc2)NC(=O)c2ccccc2F)cc1OCC` (centres undefined), the AC50 [2] was 0.58 µM [falling, single point].

For `CCN1C(=O)[C@H]2[C@@H](c3ccc(SC4CCCCC4)c(OC)c3)N[C@@](Cc3ccccc3)(C(=O)OC)[C@H]2C1=O`, the cell number change was 17.9% and the AC50 [2] was 4.11 µM [falling, partial curve, poor fit].

With `COc1cccc(CNC(=O)c2ccc(CS(=O)c3ccccc3)o2)c1` (centres undefined) the cell number change was -10% and the AC50 [2] was 29.1 µM [falling, single point].

With `COc1cc(/C=C2\C(=N)N3N=C(C)SC3=NC2=O)cc(Cl)c1OCCOc1ccc(NC(C)=O)cc1` the AC50 [2] was 9.2 µM [rising, partial curve, poor fit].

For `O=C(CCNS(=O)(=O)c1ccc(Br)cc1)NC1CCN(Cc2ccccc2)CC1`, the cell number change was 1.12% and the AC50 [2] was 29.1 µM [falling, single point].

With `Cc1cc(C(C)(C)C)cc(C)c1CCNC(=O)c1ccc[n+]([O-])c1` the cell number change was -18.3% and the AC50 [2] was 25.9 µM [falling, single point].

For `Cc1noc(/C=C/N(C)C)c1S(=O)(=O)N1CCC(C(=O)O)CC1`, the cell number change was -30.3%, the AC50 [1] was 0.116 µM [falling, full curve] and the AC50 [2] was 0.206 µM [falling, full curve].

For `Cc1ccc(-c2nc(NCCN(C)C)c3ccccc3n2)cc1`, the cell number change was 17.2% and the AC50 [2] was 29.1 µM [falling, single point].

Compound `O=C(CCC1CCCCC1)Nc1cc(Cl)ccc1N1CCOCC1` has a cell number change of 49.5%.

In the case of `O=C(CCN1C(=O)S/C(=C/c2ccc(Cl)cc2)C1=O)N1CCOCC1`, the cell number change is reported as 52.5%, the AC50 [1] is reported as 29.1 µM [rising, single point] and the AC50 [2] is reported as 0.164 µM [rising, full curve, poor fit].

In the case of `COc1ccc([C@@H]2Sc3ccccc3N(CCN(C)C)C(=O)[C@@H]2OC(C)=O)cc1`, the cell number change is reported as 13% and the AC50 [2] is reported as 16.4 µM [rising, single point].

Compound `CCOC(=O)c1ccc2nc3c(cc2c1)CCS3` has a cell number change of 14.3%.

In the case of `CCOC(=O)c1c(N)sc(C(=O)N(C)C)c1CN1CCOCC1`, the cell number change is reported as 23.7% and the AC50 [2] is reported as 6.51 µM [falling, partial curve, poor fit].

With `CC(C)(C)NC(=O)CCN(/N=C/c1ccccc1O)C1=NS(=O)(=O)c2ccccc21` the cell number change was -27% and the AC50 [2] was 29.1 µM [falling, single point].

For `COc1cc(/C=C(\C#N)c2nc3ccccc3[nH]2)c([N+](=O)[O-])cc1OCc1ccccc1`, the cell number change was -50.4%, the AC50 [1] was 23.1 µM [falling, single point] and the AC50 [2] was 14.6 µM [falling, single point].

For `c1cncc(-c2nnc(SCc3cccc4ccccc34)o2)c1`, the cell number change was 29.3% and the AC50 [2] was 3.26 µM [rising, single point].

With `CSc1ccccc1NC(=O)C1CC(c2ccccc2Cl)=NO1` (centres undefined) the cell number change was -4.95% and the AC50 [2] was 29.1 µM [rising, single point].

For `N#Cc1c(-c2ccc(Cl)cc2)ccn2nc(C3CCCCC3)nc12`, the cell number change was 7.9%.

With `CN(C)C(=O)N1CCCC(C(=O)NCc2ccc(F)cc2Cl)C1` (centres undefined) the cell number change was -10.7%.

With `Cc1c(Cl)cccc1NC(=O)C1CCN(c2cnccn2)CC1` the cell number change was 16.7% and the AC50 [2] was 5.17 µM [falling, single point].

With `O=C1CCCCCCC1Sc1ccccc1[N+](=O)[O-]` (centres undefined) the cell number change was -4.16% and the AC50 [2] was 29.1 µM [falling, single point].

With `COc1ccc(OC)c(CC(NC(C)=O)C(=O)NC2CCN(S(=O)(=O)c3ccc(NC(C)=O)cc3)CC2)c1` (centres undefined) the cell number change was 38.5%, the AC50 [1] was 25.9 µM [rising, partial curve, poor fit] and the AC50 [2] was 0.13 µM [falling, full curve].

In the case of `Cc1ccc(S(=O)(=O)N2CCN(C(=O)COC(=O)c3ccc(O)cc3)CC2)c(C)c1`, the cell number change is reported as 19.5% and the AC50 [2] is reported as 23.1 µM [rising, single point].

`CCOc1ccccc1N(CC(=O)NCc1ccncc1)S(=O)(=O)c1ccccc1` showed a cell number change of 8.97%.

With `Cc1ccc(C)c(-n2ccnc2SCC(=O)c2c(N)n(C3CC3)c(=O)[nH]c2=O)c1` the cell number change was 12.6% and the AC50 [2] was 0.00461 µM [rising, full curve, poor fit].

With `Cc1c(S(=O)(=O)c2ccccn2)c(N)n(Cc2cccc(Cl)c2)c1C` the cell number change was 2.84%.

With `CN(C)S(=O)(=O)c1cccc(NC(=O)CCCSc2ccccc2)c1` the cell number change was 2.1% and the AC50 [2] was 6.51 µM [rising, single point].

With `Cc1ccc(Nc2nc(-c3sc(NC(=O)c4cccc(Cl)c4)nc3C)cs2)cc1` the cell number change was -36% and the AC50 [1] was 1.3 µM [falling, full curve, poor fit].

For `COc1ccc(/C(N)=N/OC(=O)CC2CCCCC2)cc1`, the cell number change was 15% and the AC50 [2] was 14.6 µM [rising, partial curve].

In the case of `COc1ccc(-n2c(=S)[nH]c3cc(C(=O)NCc4ccccc4OC)ccc3c2=O)c(OC)c1`, the cell number change is reported as 7.92% and the AC50 [2] is reported as 0.00517 µM [rising, full curve, poor fit].

In the case of `CCCCCCCCS(=O)c1sc2nc(C)cc(C)c2c1N` (centres undefined), the AC50 [1] is reported as 0.291 µM [rising, partial curve, poor fit].

For `Cc1cc2ncn(CC(O)COc3cccc(C(=O)O)c3)c2cc1C` (centres undefined), the cell number change was 6.05% and the AC50 [2] was 1.64 µM [rising, partial curve, poor fit].

With `COC(=O)c1cccc(NC(=O)CN2C(=O)C3CCCCC3C2=O)c1` (centres undefined) the cell number change was 1.61%.

With `COc1ccc(OC)c2sc(N(CCCN(C)C)C(=O)c3ccc(S(=O)(=O)N4CCc5ccccc5C4)cc3)nc12` the cell number change was -77.2%, the AC50 [1] was 3.66 µM [falling, full curve] and the AC50 [2] was 0.517 µM [falling, partial curve, poor fit].

With `O=C(CS(=O)(=O)c1ccccc1)c1ccc2c(c1)OCCO2` the cell number change was -26% and the AC50 [2] was 23.1 µM [rising, single point].

With `CCC(=O)O/N=C(\N)c1ccc(Oc2cc(C)c(Cl)c(C)c2)c([N+](=O)[O-])c1` the cell number change was 19% and the AC50 [2] was 32.6 µM [falling, single point].

In the case of `O=C(c1cc(=O)c2ccccc2o1)N1CCN(c2cccc(Cl)c2)CC1`, the cell number change is reported as 122%, the AC50 [1] is reported as 23.1 µM [rising, single point] and the AC50 [2] is reported as 0.206 µM [rising, full curve, poor fit].

For `CC(C)CCn1c(SCCN2CCOCC2)nc2c1c(=O)[nH]c(=O)n2C`, the cell number change was 62.8% and the AC50 [1] was 18.4 µM [rising, partial curve, poor fit].

For `CN(C(=O)CC(NC(=O)c1ccccc1Cl)c1ccccc1)c1ccccc1` (centres undefined), the cell number change was 31.5%, the AC50 [1] was 0.116 µM [rising, full curve] and the AC50 [2] was 0.0651 µM [rising, full curve, poor fit].

In the case of `CC(C)Oc1ccc(C(=O)Nc2ccc(N3CCN(C(=O)c4ccco4)CC3)cc2)cc1`, the cell number change is reported as 3.6%.

For `CN1CCN(CCCc2c3c(cc4c2CCC4)CCC3)CC1`, the cell number change was 63.6%, the AC50 [1] was 18.4 µM [rising, single point] and the AC50 [2] was 6.51 µM [falling, single point].

In the case of `CN1CCN(C(=S)Nc2cc(S(=O)(=O)N3CCOCC3)ccc2Cl)CC1`, the cell number change is reported as -3.11%, the AC50 [1] is reported as 0.731 µM [falling, full curve, poor fit] and the AC50 [2] is reported as 0.517 µM [falling, full curve].

In the case of `CC(C)c1onc(C(=O)Nc2cccnc2Cl)c1[N+](=O)[O-]`, the cell number change is reported as 20.5% and the AC50 [1] is reported as 0.259 µM [falling, partial curve, poor fit].

With `S=c1nc[nH]c2c1[nH]c1ccc(Cl)cc12` the cell number change was 21.4% and the AC50 [2] was 2.06 µM [rising, full curve].

`O=C(NCCc1c[nH]c2ccccc12)C1CCN(S(=O)(=O)c2ccccc2)CC1` gave a cell number change of -22.5%.

For `O=C1CCCN1C(=O)CSc1ccc2ccccc2n1`, the cell number change was 8.4%, the AC50 [1] was 1.64 µM [falling, partial curve] and the AC50 [2] was 1.3 µM [falling, partial curve].

In the case of `COc1cccc(NC(=O)Cn2c(=O)n(C)c(=O)c3sc4c(c32)COC(C)(C)C4)c1`, the cell number change is reported as -58.1%, the AC50 [1] is reported as 23.1 µM [falling, single point] and the AC50 [2] is reported as 29.1 µM [falling, single point].

For `C=CCn1c(SCC(=O)NCC)nc2sc3c(c2c1=O)CCC3`, the cell number change was -26.9%, the AC50 [1] was 0.82 µM [falling, full curve, poor fit] and the AC50 [2] was 6.51 µM [rising, single point].
